Assay results published in the supplement of paper PMC6411743.
± gives the standard deviation of the averaged measurements. The list shows a part of the results, in another mix than the full data.

By UniProt entry, the sequences of proteins in these tests, tags left out. Where a name states a change or a piece, a line headed by the entry shows the natural chain unless it says otherwise.
UniProt P98171: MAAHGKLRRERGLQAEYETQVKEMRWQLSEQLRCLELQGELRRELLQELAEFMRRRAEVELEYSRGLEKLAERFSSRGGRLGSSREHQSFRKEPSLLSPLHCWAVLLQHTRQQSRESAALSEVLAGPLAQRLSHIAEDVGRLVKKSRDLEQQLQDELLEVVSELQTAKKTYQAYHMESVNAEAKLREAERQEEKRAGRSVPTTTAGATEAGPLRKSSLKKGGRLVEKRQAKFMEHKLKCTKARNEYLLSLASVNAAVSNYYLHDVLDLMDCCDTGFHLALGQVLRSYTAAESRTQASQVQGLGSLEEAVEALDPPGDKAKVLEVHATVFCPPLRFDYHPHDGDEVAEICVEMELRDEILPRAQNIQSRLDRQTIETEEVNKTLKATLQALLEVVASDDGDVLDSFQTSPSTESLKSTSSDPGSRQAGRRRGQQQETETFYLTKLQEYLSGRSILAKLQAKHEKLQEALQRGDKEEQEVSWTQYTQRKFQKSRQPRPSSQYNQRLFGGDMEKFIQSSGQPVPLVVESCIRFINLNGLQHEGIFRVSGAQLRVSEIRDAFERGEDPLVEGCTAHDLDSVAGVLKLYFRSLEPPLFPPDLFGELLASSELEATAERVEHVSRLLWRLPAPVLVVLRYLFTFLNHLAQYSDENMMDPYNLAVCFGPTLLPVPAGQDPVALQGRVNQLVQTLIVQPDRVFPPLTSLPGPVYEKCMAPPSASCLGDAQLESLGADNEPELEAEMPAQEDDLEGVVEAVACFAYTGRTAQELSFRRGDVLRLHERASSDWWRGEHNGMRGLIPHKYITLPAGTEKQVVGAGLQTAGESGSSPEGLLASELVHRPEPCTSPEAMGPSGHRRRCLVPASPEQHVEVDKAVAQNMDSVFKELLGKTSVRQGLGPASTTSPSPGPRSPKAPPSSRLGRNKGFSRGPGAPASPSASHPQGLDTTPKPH
UniProt Q8TB96: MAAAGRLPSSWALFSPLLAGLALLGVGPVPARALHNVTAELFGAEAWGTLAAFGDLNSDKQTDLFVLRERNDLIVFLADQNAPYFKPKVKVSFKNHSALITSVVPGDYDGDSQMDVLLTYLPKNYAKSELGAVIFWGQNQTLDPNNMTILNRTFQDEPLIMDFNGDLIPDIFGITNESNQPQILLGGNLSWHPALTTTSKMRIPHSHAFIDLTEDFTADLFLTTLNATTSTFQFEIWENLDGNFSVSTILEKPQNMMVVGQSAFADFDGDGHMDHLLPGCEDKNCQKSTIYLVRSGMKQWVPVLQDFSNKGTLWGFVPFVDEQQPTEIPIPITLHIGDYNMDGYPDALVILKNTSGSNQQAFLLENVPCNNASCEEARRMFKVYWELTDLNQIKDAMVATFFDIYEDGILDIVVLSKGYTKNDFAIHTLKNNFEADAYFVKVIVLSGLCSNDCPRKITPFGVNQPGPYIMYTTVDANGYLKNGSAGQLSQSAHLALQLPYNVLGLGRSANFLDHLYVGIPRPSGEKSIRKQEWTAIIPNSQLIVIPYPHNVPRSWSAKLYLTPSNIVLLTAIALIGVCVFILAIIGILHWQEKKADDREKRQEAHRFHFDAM
UniProt A6NKF1: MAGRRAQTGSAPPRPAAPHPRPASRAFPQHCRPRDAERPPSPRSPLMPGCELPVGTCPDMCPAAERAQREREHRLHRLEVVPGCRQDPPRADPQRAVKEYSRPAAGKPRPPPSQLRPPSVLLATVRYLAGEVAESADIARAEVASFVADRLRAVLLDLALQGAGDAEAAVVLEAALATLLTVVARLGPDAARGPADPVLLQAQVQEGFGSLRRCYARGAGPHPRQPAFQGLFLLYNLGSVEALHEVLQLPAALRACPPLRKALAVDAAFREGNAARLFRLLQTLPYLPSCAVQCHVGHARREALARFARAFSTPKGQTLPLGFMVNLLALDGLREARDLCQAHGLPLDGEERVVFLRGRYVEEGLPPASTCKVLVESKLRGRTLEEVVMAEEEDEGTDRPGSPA
UniProt Q13889: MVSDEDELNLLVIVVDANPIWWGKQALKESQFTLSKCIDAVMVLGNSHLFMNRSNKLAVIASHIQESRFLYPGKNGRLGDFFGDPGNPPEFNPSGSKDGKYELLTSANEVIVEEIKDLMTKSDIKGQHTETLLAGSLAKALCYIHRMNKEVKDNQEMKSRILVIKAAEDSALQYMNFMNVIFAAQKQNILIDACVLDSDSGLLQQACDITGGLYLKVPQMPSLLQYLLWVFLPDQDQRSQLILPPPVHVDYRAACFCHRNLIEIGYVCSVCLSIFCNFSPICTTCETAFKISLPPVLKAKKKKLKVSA
UniProt Q6L8Q7: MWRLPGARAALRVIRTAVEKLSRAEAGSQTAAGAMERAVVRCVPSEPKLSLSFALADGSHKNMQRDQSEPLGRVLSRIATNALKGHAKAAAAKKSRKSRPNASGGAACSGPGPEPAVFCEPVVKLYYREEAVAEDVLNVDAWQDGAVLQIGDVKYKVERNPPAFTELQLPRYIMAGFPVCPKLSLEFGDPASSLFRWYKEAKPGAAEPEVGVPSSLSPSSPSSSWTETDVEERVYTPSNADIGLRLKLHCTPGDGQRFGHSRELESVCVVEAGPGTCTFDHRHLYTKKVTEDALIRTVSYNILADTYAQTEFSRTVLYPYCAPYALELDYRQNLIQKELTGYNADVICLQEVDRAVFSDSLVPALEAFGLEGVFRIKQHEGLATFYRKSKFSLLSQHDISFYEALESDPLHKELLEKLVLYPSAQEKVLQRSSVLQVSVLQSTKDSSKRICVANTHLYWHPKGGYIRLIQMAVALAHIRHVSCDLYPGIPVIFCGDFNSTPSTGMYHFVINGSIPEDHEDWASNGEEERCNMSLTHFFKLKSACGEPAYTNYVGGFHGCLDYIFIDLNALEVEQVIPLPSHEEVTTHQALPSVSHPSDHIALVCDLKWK
UniProt Q15031: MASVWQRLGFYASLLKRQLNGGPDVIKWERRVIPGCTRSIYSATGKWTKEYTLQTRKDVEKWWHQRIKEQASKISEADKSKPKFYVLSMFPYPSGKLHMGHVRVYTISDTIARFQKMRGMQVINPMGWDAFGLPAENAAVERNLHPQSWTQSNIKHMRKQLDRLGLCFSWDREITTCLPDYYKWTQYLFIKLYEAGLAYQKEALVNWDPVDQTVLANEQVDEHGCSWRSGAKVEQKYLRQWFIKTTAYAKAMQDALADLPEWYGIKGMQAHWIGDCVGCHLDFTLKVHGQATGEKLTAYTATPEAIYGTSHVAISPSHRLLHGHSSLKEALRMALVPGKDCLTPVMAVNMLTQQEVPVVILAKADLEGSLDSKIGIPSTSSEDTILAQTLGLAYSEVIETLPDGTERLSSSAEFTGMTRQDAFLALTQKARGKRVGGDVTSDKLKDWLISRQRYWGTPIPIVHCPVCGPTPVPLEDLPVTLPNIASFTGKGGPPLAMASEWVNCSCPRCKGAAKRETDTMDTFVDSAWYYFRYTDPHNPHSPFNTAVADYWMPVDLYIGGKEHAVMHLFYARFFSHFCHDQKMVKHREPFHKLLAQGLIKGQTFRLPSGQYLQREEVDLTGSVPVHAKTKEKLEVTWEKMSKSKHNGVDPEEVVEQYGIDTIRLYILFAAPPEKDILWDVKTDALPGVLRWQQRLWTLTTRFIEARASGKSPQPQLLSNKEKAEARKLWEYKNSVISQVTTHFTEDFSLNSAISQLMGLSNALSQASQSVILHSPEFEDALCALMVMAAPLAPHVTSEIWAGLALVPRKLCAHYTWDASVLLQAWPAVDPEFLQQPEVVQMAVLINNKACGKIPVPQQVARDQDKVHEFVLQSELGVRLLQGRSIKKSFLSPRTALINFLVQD
UniProt P40855: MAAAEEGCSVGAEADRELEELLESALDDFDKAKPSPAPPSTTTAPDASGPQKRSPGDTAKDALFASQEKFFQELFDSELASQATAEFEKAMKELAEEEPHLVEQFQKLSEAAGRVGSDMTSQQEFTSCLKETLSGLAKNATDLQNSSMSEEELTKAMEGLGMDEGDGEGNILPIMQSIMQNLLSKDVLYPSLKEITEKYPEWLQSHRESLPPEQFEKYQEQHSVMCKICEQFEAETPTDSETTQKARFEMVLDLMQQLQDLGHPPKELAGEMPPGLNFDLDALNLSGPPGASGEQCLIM
UniProt P08397: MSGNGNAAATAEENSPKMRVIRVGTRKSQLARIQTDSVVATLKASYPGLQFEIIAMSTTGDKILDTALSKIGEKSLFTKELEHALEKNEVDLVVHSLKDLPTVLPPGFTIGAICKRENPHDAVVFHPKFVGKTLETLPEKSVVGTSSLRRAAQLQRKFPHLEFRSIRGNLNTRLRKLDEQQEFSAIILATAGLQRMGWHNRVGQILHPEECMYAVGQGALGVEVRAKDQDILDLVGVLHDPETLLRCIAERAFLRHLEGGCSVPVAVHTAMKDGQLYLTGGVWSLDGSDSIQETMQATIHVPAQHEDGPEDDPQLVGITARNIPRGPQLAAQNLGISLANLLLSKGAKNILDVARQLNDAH
UniProt Q96RT7, whole entry: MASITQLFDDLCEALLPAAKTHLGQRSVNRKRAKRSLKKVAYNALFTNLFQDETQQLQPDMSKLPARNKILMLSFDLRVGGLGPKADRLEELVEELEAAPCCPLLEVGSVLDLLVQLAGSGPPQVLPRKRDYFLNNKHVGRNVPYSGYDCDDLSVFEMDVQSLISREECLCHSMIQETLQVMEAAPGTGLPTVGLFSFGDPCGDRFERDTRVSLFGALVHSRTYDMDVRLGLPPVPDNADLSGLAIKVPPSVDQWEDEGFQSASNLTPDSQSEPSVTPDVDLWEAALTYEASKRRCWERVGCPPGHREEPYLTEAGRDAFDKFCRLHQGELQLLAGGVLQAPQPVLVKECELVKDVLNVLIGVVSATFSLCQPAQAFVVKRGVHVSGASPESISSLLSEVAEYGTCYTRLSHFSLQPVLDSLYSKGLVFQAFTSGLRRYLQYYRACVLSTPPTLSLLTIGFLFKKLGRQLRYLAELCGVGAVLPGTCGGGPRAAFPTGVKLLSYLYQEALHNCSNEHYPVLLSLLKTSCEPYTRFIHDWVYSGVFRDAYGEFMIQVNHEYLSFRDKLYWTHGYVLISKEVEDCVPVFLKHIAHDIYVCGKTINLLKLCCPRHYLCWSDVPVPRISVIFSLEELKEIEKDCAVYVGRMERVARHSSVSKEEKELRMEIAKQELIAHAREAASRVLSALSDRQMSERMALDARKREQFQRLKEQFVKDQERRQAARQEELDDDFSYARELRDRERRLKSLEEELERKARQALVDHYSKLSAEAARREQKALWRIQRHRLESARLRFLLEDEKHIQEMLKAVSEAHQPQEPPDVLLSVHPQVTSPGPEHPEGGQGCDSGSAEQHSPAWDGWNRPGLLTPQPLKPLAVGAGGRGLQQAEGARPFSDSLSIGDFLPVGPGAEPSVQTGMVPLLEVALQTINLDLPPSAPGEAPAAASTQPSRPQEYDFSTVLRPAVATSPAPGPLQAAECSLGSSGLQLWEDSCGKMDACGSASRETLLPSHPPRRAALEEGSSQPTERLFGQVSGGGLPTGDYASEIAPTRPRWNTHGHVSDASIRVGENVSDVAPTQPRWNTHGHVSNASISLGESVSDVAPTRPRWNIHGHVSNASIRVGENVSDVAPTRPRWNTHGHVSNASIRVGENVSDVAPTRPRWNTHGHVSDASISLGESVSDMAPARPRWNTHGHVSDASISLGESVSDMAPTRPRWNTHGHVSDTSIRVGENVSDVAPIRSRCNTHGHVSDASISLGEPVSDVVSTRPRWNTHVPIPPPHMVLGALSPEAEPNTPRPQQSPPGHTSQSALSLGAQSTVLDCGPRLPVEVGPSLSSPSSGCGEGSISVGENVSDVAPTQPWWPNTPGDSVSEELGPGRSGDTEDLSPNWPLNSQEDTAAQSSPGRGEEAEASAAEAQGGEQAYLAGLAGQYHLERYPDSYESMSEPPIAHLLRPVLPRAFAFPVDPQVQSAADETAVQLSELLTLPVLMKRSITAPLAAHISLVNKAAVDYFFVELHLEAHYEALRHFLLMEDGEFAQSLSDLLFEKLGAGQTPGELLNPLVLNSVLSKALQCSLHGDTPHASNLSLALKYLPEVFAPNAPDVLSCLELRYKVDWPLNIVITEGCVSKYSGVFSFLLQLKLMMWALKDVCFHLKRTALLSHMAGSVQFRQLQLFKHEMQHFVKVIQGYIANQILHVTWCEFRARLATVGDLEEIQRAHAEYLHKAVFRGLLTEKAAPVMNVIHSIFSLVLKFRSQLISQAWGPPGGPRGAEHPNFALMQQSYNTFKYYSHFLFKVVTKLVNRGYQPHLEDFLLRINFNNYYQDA
UniProt P08962, whole entry: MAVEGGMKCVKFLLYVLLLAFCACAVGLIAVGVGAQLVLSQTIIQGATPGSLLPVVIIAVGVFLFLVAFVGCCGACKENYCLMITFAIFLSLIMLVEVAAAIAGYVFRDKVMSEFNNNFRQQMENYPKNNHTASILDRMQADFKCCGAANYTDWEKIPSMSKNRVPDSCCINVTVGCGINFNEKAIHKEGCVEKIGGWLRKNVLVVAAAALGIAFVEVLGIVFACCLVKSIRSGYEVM

Compound: Nc1ncnc2c1ncn2[C@@H]1O[C@H](COP(=O)(O)OP(=O)(O)NP(=O)(O)O)[C@@H](O)[C@H]1O [adenylyl imidodiphosphate]
Assay: NP40-soluble protein abundance relative to vehicle (solubility fold change) (ratio); higher = more soluble protein in presence of AMP-PNP
Procedure, shortened: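 Crude Jurkat lysate, prepared by Dounce homogenisation, was exposed to eight concentrations from 0.1 to 10 mM for 10 min at room temperature and then 3 min at 37 °C. Solubilisation used 0.8% NP40 with benzonase for 60 min at 4 °C, followed by ultracentrifugation and TMT labelling of the supernatant for LC-MS/MS. After vsn normalisation of intensities, each value is the fold change against the detergent-processed vehicle within each replicate, across three independent experiments.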

Target | NP40-soluble protein abundance (concentration: 1mM) | NP40-soluble protein abundance (concentration: 2mM) | NP40-soluble protein abundance (concentration: 4mM) | NP40-soluble protein abundance (concentration: 6mM) | NP40-soluble protein abundance (concentration: 8mM) | NP40-soluble protein abundance (concentration: 10mM)
E7EQN5 and related entries (UniProt P98171) | 0.999 ± 0.013 | 0.997 ± 0.05 | 1.02 ± 0.032 | 1.03 ± 0.077 | 1.01 ± 0.056 | 1.04 ± 0.023
F5GXC5 and related entries (UniProt Q8TB96) | 1.01 ± 0.017 | 1.02 ± 0.054 | 1.01 ± 0.037 | 1.008 ± 0.0079 | 1.01 ± 0.024 | 0.996 ± 0.023
E9PIW9 and related entries (UniProt Q6SPF0) | 1.005 ± 0.01 | 1.04 ± 0.026 | 0.996 ± 0.029 | 0.976 ± 0.023 | 0.952 ± 0.023 | 0.994 ± 0.067
F8WC89 (UniProt A6NKF1) | 0.817 ± 0.096 | 0.83 ± 0.074 | 0.838 ± 0.11 | 0.87 ± 0.11 | 0.909 ± 0.096 | 0.965 ± 0.11
E5RIH5 and related entries (UniProt Q6NXR4) | 0.957 ± 0.042 | 0.99 ± 0.05 | 0.964 ± 0.04 | 0.939 ± 0.048 | 0.926 ± 0.034 | 0.925 ± 0.024
F5H070 and related entries (UniProt Q9Y4C1) | 1.02 ± 0.027 | 1.01 ± 0.012 | 1.03 ± 0.017 | 1.01 ± 0.033 | 0.991 ± 0.02 | 0.978 ± 0.013
E9PHH9 and related entries (UniProt Q9BUI4) | 0.964 ± 0.041 | 0.945 ± 0.016 | 0.961 ± 0.051 | 0.988 ± 0.044 | 0.978 ± 0.052 | 0.947 ± 0.039
F5GX51 and related entries (UniProt Q9Y4F9) | 0.989 ± 0.032 | 0.9663 ± 0.0022 | 0.982 ± 0.022 | 0.9632 ± 0.0049 | 0.941 ± 0.022 | 0.979 ± 0.04
F8VX04 and related entries (UniProt Q9H2H9) | 1.14 ± 0.1 | 1.36 ± 0.19 | 1.1 ± 0.051 | 1.06 ± 0.094 | 1.01 ± 0.087 | 1.13 ± 0.19
E9PEN0 and related entries (UniProt Q8WYH8) | 1.001 ± 0.0063 | 1.03 ± 0.035 | 0.9865 ± 0.0042 | 1.02 ± 0.026 | 1.03 ± 0.035 | 1.09 ± 0.07
E9PSH8 and related entries (UniProt P07766) | 1.03 ± 0.012 | 1.1 ± 0.046 | 1.05 ± 0.019 | 1.04 ± 0.018 | 1.06 ± 0.03 | 1.1 ± 0.071
F5GZ90 and related entries (UniProt Q9NZJ0) | 0.97 ± 0.019 | 0.958 ± 0.014 | 0.9829 ± 0.0072 | 0.953 ± 0.023 | 0.9414 ± 0.0028 | 0.937 ± 0.015
F5GXG6 and related entries (UniProt Q13889) | 0.979 ± 0.024 | 0.988 ± 0.032 | 1.02 ± 0.045 | 1.04 ± 0.053 | 1.04 ± 0.017 | 1.06 ± 0.023
F6T1Q0 and related entries (UniProt Q6L8Q7) | 0.978 ± 0.033 | 0.888 ± 0.096 | 0.935 ± 0.029 | 0.908 ± 0.02 | 0.924 ± 0.029 | 0.877 ± 0.033
E9PHM2 and related entries (UniProt Q15031) | 0.984 ± 0.024 | 0.916 ± 0.069 | 0.975 ± 0.021 | 0.97 ± 0.032 | 0.978 ± 0.019 | 0.954 ± 0.027
E9PC47 and related entries (UniProt P53667) | 1 ± 0.036 | 0.992 ± 0.027 | 1.02 ± 0.043 | 0.995 ± 0.026 | 0.997 ± 0.026 | 0.974 ± 0.012
F8WEW6 and related entries (UniProt O76064) | 0.94 ± 0.015 | 0.983 ± 0.047 | 0.888 ± 0.016 | 0.979 ± 0.044 | 0.911 ± 0.029 | 0.941 ± 0.05
F5H269 and related entries (UniProt Q9Y485) | 0.992 ± 0.012 | 1.01 ± 0.026 | 1.01 ± 0.039 | 0.97 ± 0.015 | 0.964 ± 0.032 | 1.02 ± 0.031
E7EPP6 and related entries (UniProt O14757) | 0.986 ± 0.0096 | 0.9479 ± 0.0067 | 0.985 ± 0.049 | 0.942 ± 0.036 | 0.962 ± 0.04 | 0.934 ± 0.054
G3V3G9 (UniProt P40855) | 0.971 ± 0.014 | 0.934 ± 0.057 | 0.9499 ± 0.0071 | 0.971 ± 0.018 | 0.975 ± 0.018 | 0.971 ± 0.018
E9PF19 and related entries (UniProt Q9Y4P3) | 1.02 ± 0.021 | 1.04 ± 0.017 | 1.12 ± 0.022 | 1.21 ± 0.055 | 1.25 ± 0.085 | 1.25 ± 0.07
E9PKC0 and related entries (UniProt Q6IQ23) | 1.02 ± 0.03 | 1.03 ± 0.019 | 1.04 ± 0.037 | 1.02 ± 0.036 | 1.02 ± 0.033 | 1.07 ± 0.016
F5H226 and related entries (UniProt P08397) | 1.03 ± 0.023 | 0.987 ± 0.046 | 1 ± 0.032 | 0.981 ± 0.02 | 1.02 ± 0.014 | 0.98 ± 0.062
E9PBG7 and related entries (UniProt Q13557) | 0.94 ± 0.026 | 0.989 ± 0.049 | 0.903 ± 0.017 | 0.89 ± 0.054 | 0.878 ± 0.022 | 0.88 ± 0.027
E7EQL8 and related entries (UniProt Q96RT7) | 1.01 ± 0.026 | 1.02 ± 0.012 | 1.01 ± 0.022 | 1.01 ± 0.018 | 0.9878 ± 0.0061 | 1.01 ± 0.029
F5H527 and related entries (UniProt Q76I76) | 1 ± 0.025 | 1.03 ± 0.047 | 1.02 ± 0.044 | 1.014 ± 0.006 | 1.01 ± 0.037 | 1.01 ± 0.028
E7ESG2 and related entries (UniProt Q9HAW4) | 0.994 ± 0.02 | 1.03 ± 0.044 | 1.01 ± 0.018 | 1.05 ± 0.018 | 1.03 ± 0.038 | 1.04 ± 0.042
F8VV56 and related entries (UniProt P08962) | 0.969 ± 0.045 | 0.988 ± 0.093 | 0.946 ± 0.069 | 0.972 ± 0.036 | 0.959 ± 0.025 | 0.944 ± 0.065

Random excerpt: two records from the list
Target | NP40-soluble protein abundance (concentration: 1mM) | NP40-soluble protein abundance (concentration: 2mM) | NP40-soluble protein abundance (concentration: 4mM) | NP40-soluble protein abundance (concentration: 6mM) | NP40-soluble protein abundance (concentration: 8mM) | NP40-soluble protein abundance (concentration: 10mM)
G3V3G9 (UniProt P40855) | 0.971 ± 0.014 | 0.934 ± 0.057 | 0.9499 ± 0.0071 | 0.971 ± 0.018 | 0.975 ± 0.018 | 0.971 ± 0.018
F5GXC5 and related entries (UniProt Q8TB96) | 1.01 ± 0.017 | 1.02 ± 0.054 | 1.01 ± 0.037 | 1.008 ± 0.0079 | 1.01 ± 0.024 | 0.996 ± 0.023
